Laboratory results as given in paper PMC4986862.

Chains of the proteins cited; added tags and fusions are not shown. Lines headed by an entry give the natural chain unless they say otherwise; changes in a name come on top.
UniProt Q38997: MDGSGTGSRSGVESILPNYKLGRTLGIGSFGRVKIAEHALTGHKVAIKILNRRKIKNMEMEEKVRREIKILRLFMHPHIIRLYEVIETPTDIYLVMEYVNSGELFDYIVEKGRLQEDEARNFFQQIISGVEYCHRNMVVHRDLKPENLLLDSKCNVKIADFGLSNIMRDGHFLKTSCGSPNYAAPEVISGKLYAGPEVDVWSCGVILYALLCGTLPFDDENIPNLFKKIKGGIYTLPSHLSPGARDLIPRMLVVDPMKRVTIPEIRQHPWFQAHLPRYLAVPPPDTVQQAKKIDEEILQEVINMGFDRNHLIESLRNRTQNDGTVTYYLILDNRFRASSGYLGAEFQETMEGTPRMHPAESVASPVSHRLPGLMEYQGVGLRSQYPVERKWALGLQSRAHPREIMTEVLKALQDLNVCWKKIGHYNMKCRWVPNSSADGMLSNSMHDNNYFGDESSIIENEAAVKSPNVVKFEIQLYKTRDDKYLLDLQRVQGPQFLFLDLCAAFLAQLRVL

Target: BD–AKIN10 (AKIN10 fused to the GAL4 binding domain) (Arabidopsis thaliana) (UniProt Q38997)
Experiment: two-hybrid; pairwise tests, growth on selective medium with 25 mM 3-AT

B1: AD–PTL (full-length PETAL LOSS fused to the GAL4 activation domain) (protein, UniProt Q9LZS0 1-591)
chain: MDQDQHPQYGIPELRQLMKGGGRTTTTTPSTSSHFPSDFFGFNLAPVQPPPHRLHQFTTDQDMGFLPRGIHGLGGGSSTAGNNSNLNASTSGGGVGFSGFLDGGGFGSGVGGDGGGTGRWPRQETLTLLEIRSRLDHKFKEANQKGPLWDEVSRIMSEEHGYQRSGKKCREKFENLYKYYRKTKEGKAGRQDGKHYRFFRQLEALYGDSNNLVSCPNHNTQFMSSALHGFHTQNPMNVTTTTSNIHNVDSVHGFHQSLSLSNNYNSSELELMTSSSEGNDSSSRRKKRSWKAKIKEFIDTNMKRLIERQDVWLEKLTKVIEDKEEQRMMKEEEWRKIEAARIDKEHLFWAKERARMEARDVAVIEALQYLTGKPLIKPLCSSPEERTNGNNEIRNNSETQNENGSDQTMTNNVCVKGSSSCWGEQEILKLMEIRTSMDSTFQEILGGCSDEFLWEEIAAKLIQLGFDQRSALLCKEKWEWISNGMRKEKKQINKKRKDNSSSCGVYYPRNEENPIYNNRESGYNDNDPHQINEQGNVGSSTSNANANANVTTGNPSGAMAASTNCFPFFMGDGDQNLWESYGLRLSKEENQ
In the case of B1, the binding is reported as “binds”.

These are yes or no findings as the source states them, for the method shown. Binding can be weak; no strength is given. Tags and fused reporters may be left off the sequences shown.
